Assay results: the supplement of paper PMC10849652
The list shows a part of the results.

Amino acid sequences for entries named in this document (tags omitted). A change or cut given only in a name is not applied to a line headed by its entry.
UniProt Q8N5J2: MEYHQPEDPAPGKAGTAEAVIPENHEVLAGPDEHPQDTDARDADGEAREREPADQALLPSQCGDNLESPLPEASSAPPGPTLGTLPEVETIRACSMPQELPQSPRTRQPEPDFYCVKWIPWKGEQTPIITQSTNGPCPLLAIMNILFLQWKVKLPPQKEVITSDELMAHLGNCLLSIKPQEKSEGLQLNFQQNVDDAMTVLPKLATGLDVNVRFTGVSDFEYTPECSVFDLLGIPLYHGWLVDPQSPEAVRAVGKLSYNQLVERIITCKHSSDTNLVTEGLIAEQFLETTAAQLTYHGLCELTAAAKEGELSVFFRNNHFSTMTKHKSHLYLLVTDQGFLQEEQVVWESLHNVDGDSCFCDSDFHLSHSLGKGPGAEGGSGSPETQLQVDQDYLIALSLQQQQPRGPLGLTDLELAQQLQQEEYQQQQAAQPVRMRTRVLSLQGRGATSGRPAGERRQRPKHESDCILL
UniProt Q8NBR6: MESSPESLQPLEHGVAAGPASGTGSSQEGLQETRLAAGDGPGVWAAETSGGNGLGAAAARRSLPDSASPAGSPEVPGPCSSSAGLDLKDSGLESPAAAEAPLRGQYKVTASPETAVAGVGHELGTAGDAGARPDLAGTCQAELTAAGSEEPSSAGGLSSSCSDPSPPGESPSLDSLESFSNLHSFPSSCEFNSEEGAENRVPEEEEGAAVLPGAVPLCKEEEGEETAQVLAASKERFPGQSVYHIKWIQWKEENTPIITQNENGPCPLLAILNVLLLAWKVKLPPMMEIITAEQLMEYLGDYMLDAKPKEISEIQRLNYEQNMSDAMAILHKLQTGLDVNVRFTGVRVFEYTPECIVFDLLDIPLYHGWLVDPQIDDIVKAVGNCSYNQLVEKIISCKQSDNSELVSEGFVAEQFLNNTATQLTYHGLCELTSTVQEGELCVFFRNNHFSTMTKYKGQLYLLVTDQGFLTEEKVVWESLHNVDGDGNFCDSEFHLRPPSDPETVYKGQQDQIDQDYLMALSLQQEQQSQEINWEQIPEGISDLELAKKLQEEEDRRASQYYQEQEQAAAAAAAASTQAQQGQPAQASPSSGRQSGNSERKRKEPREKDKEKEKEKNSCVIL
UniProt Q8N4V1: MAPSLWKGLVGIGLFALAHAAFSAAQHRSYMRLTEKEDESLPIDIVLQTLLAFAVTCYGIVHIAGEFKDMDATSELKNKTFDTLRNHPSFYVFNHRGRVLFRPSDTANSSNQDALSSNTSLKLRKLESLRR
UniProt Q8NDA8: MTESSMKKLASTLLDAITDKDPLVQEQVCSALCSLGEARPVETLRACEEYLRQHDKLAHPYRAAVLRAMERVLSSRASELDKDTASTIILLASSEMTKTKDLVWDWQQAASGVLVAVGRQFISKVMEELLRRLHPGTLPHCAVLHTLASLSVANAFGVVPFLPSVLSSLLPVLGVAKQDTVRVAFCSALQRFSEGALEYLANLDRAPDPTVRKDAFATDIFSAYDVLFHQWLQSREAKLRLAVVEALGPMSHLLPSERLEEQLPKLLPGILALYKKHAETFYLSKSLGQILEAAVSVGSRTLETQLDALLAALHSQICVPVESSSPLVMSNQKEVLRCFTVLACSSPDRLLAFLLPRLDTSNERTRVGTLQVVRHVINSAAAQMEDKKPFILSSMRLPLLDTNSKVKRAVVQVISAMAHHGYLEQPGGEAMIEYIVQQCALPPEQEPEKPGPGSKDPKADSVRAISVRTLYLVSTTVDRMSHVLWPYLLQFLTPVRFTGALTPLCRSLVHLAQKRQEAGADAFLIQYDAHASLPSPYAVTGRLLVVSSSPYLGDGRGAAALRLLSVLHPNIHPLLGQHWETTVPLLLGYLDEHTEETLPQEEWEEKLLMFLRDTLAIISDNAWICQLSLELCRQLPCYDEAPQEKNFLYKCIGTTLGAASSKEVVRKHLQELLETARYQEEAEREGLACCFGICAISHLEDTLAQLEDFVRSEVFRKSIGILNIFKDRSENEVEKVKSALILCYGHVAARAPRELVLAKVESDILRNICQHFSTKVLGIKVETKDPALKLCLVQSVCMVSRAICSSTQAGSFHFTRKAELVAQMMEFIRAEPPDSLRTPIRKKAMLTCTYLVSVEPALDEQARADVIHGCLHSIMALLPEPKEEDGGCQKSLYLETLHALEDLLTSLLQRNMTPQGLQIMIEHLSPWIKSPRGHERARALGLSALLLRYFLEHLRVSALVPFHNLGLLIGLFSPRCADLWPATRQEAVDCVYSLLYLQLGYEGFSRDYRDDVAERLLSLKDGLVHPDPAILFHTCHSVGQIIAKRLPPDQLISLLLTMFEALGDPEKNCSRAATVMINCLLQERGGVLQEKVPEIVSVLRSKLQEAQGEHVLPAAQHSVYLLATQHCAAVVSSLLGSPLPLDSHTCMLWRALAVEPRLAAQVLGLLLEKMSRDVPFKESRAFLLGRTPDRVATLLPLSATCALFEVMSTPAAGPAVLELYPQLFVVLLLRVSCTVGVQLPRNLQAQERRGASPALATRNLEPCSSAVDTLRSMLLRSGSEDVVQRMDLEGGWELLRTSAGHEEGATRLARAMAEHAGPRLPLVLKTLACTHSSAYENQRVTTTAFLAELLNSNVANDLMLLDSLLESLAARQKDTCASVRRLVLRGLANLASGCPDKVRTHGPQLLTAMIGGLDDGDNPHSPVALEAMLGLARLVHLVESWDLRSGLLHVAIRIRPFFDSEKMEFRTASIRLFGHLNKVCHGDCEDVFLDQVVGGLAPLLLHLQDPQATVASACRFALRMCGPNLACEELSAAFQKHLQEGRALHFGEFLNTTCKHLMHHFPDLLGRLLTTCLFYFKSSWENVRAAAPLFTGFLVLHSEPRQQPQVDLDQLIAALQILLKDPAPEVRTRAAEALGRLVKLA
UniProt O60291: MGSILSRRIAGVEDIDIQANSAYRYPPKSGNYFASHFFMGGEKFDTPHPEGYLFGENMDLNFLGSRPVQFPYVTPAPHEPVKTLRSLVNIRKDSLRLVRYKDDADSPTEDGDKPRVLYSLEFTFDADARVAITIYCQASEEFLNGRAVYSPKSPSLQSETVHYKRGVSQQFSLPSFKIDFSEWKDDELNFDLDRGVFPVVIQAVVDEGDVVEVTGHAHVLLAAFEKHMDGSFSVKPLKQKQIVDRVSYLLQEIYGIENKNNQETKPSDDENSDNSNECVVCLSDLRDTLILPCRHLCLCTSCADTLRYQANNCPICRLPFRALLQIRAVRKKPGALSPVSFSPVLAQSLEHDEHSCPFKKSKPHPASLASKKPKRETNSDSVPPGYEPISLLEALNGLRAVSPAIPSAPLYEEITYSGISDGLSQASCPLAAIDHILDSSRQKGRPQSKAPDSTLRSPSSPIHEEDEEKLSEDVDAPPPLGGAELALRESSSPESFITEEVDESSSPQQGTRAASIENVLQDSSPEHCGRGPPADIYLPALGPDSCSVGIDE
UniProt Q9Y4U1: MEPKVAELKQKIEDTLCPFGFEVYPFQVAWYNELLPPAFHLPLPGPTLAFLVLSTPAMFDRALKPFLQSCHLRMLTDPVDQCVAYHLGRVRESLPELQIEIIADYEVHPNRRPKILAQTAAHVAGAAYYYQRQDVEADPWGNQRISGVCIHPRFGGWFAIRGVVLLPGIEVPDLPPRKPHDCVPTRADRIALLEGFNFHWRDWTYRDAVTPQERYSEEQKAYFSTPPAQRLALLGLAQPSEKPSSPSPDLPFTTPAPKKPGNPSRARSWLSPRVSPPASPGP
UniProt Q5JXC2: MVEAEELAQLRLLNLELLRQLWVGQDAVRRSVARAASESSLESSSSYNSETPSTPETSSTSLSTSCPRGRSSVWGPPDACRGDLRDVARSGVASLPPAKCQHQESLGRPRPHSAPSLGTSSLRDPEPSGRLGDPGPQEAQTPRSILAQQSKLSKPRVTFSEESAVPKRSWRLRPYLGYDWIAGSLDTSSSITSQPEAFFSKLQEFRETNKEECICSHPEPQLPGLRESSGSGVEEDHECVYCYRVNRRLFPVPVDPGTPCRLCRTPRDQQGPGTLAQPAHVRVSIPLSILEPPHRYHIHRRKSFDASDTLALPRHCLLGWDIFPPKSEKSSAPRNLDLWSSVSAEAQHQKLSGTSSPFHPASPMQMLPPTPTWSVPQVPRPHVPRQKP
UniProt Q7Z6M3: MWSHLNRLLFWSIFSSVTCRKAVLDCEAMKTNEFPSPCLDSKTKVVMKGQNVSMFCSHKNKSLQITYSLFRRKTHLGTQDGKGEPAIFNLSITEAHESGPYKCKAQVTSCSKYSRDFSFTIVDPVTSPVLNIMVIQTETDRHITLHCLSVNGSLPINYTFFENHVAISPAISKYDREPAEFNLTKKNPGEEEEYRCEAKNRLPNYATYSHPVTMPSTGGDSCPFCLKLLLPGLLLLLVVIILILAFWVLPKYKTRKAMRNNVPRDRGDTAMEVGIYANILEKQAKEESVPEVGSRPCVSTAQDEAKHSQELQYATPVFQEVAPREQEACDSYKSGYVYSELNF
UniProt Q9NP71: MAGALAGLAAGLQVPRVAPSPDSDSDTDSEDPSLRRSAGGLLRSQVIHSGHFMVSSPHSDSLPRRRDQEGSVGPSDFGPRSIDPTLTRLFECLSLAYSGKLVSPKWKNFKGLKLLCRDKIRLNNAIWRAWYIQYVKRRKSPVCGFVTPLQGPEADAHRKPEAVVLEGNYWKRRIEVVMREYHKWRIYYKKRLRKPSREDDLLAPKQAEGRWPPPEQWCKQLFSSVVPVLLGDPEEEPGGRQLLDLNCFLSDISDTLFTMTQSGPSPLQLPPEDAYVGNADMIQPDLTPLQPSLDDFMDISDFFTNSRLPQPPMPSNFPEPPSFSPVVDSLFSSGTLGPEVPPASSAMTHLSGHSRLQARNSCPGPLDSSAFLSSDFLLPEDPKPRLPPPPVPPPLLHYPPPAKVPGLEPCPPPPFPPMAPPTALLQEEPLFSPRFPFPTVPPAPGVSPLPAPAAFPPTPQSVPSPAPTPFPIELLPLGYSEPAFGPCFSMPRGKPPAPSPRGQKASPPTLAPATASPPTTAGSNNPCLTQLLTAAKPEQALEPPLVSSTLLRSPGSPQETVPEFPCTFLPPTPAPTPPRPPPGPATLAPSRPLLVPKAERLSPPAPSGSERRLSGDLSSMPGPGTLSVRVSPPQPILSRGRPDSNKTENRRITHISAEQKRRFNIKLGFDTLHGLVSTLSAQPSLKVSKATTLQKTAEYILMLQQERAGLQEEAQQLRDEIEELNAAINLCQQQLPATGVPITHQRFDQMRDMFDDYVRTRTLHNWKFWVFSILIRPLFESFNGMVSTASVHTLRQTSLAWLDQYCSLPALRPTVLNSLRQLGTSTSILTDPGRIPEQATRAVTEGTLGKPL
UniProt O95822: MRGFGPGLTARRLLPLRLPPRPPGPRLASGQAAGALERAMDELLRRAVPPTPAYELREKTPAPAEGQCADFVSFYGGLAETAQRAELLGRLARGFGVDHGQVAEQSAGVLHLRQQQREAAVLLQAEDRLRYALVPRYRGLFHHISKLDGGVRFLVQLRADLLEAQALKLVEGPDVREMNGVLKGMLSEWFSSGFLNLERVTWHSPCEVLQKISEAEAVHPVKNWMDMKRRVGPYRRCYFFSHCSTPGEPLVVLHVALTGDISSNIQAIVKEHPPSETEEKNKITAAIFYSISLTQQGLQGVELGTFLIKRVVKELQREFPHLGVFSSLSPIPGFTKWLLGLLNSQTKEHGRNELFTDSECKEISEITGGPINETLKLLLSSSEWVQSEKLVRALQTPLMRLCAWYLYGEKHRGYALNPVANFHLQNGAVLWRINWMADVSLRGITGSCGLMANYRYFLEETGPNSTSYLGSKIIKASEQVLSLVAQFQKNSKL
UniProt Q8NB16: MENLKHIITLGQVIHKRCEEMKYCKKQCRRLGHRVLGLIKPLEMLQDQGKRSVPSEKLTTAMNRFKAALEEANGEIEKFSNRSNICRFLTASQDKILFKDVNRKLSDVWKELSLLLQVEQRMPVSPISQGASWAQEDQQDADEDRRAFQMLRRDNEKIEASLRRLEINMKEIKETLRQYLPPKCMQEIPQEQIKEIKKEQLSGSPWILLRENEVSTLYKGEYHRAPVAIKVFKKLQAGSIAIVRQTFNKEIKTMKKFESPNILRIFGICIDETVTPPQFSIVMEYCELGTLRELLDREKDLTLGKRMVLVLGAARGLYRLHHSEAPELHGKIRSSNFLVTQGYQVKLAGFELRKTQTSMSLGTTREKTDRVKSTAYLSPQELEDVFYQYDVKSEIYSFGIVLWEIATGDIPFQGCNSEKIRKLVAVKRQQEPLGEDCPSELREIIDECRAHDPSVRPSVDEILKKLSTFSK
UniProt Q9H8S9: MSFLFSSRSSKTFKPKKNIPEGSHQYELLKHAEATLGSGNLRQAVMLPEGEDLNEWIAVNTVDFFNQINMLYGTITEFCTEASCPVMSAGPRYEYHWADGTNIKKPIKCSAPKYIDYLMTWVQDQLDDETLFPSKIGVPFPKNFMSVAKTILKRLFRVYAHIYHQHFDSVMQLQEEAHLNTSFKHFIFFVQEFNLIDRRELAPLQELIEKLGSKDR

Experiments:
Assay in all cases: log2 fold change, soluble protein after heating vs DMSO (PISA); higher = thermal stabilisation; K562 lysate, 10 uM; active = over 0.2 and 3.5 SD of the protein, either way, in both replicates (recomputed)
[1] = compound: CN1CCc2c(c3ccccc3n2Cc2ccc(C(=O)NO)cc2)C1 [Tubastatin A]
In short: (§1)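 K562 pellets were dounce-homogenised in PBS pH 7.4 containing 1 mM MgCl2, and the crude extract, at 1 mg/mL protein, was exposed to 10 μM compound for 30 min. Aliquots were heated for 3 min across 48°C-58°C, pooled, brought to 0.5% NP-40 at 4°C and spun at 21,000xg for 90 min, with the supernatant taken as soluble protein. TMTpro 16plex LC-MS/MS with equalised channel sums quantified that protein. Values are log-two fold changes in thermal stability relative to solvent controls, taken from duplicates.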

[2] = compound: CNC(=O)C1=CC=CC=C1NC2=NC(=NC=C2Cl)NC3=C(C=C(C=C3)N4CCOCC4)OC
In short: as §1

[3] = compound: CNC(=O)c1ccc(Nc2ncc(C(F)(F)F)c(NCc3nccnc3N(C)S(C)(=O)=O)n2)cc1 [defactinib]
In short: as §1

[4] = compound: CNc1nc(-c2ccc3c(N)n[nH]c3c2)cc(N2C[C@@H](C(=O)NC3CCCCC3)CC[C@H]2C)n1
In short: as §1

[5] = compound: COC(=O)N[C@@H](C)CNc1nccc(-c2cn(C(C)C)nc2-c2cc(Cl)cc(NS(C)(=O)=O)c2F)n1 [encorafenib]
In short: as §1

[6] = compound: COC(=O)[C@H](CCSC)NC(=O)C1=C(C=C(C=C1)NC[C@H](CS)N)C2=CC=CC=C2
In short: as §1

[7] = compound: COc1cc(Nc2ncc3c(n2)-c2ccc(Cl)cc2C(c2c(F)cccc2OC)=NC3)ccc1C(=O)O [alisertib]
In short: as §1

[8] = compound: COc1cc2nc(-c3cc(F)ccc3O)nc(N[C@@H]3CNC[C@H]3C(C)(C)O)c2cc1OC
In short: as §1

[9] = compound: COc1cc2ncnc(Nc3ccc(F)c(Cl)c3)c2cc1OCCCN1CCOCC1 [gefitinib]
In short: as §1

[10] = compound: CS(=O)(=O)CCNCc1ccc(-c2ccc3ncnc(Nc4ccc(OCc5cccc(F)c5)c(Cl)c4)c3c2)o1 [lapatinib]
In short: as §1

[11] = compound: CS(=O)(=O)N1CCN(Cc2cc3nc(-c4cccc5[nH]ncc45)nc(N4CCOCC4)c3s2)CC1 [pictilisib]
In short: as §1

[12] = compound: C[C@@H](Oc1cc(-c2cnn(C3CCNCC3)c2)cnc1N)c1c(Cl)ccc(F)c1Cl [crizotinib]
In short: as §1

[13] = compound: C[C@H](Nc1ncnc2nc[nH]c12)c1cc2cccc(Cl)c2c(=O)n1-c1ccccc1 [duvelisib]
In short: as §1

[14] = compound: Cc1cc(Nc2cc(N3CCN(C)CC3)nc(Sc3ccc(NC(=O)C4CC4)cc3)n2)n[nH]1 [tozasertib]
In short: as §1

[15] = compound: Cc1ccc(-n2nc(C(C)(C)C)cc2NC(=O)Nc2ccc(OCCN3CCOCC3)c3ccccc23)cc1 [doramapimod]
In short: as §1

[16] = compound: Cc1ccc(NC(=O)c2ccc(CN3CC[C@H](N(C)C)C3)c(C(F)(F)F)c2)cc1Nc1nccc(-c2cncnc2)n1 [bafetinib]
In short: as §1

[17] = compound: CN1CC[C@H](c2c(O)cc(O)c3c(=O)cc(-c4ccccc4Cl)oc23)[C@H](O)C1 [alvocidib]
In short: as §1

[18] = compound: C[C@H](C1=CC=C(C=C1)C(=O)NC2=C3C=CNC3=NC=C2)N
In short: as §1

[19] = compound: Cc1cc(Nc2cc(CN3CCOCC3)c3nc(C)c(Cc4ccc(Cl)cc4F)n3n2)n[nH]1 [gandotinib]
In short: as §1

[20] = compound: Cc1cccc(CC(=O)N2CCc3c2ccc(-c2cn(C)c4ncnc(N)c24)c3F)n1
In short: as §1

Measured: log2 fold change

MINDY1 isoform 3 (UniProt Q8N5J2)
inactive: [1] 0.093 | [2] -0.031 | [3] 0.021 | [4] -0.054 | [5] 0.03 | [6] -0.053 | [7] 0.001 | [8] 0.103 | [9] 0.134 | [10] -0.002 | [11] 0 | [12] -0.045 | [13] 0.051 | [14] -0.036 | [15] 0.051 | [16] -0.11

MINDY2 (UniProt Q8NBR6)
inactive: [17] -0.048 | [1] 0.003 | [5] 0.105 | [6] -0.053 | [7] -0.207 | [8] 0.111 | [9] 0.057 | [10] -0.04 | [11] 0.007 | [12] -0.048 | [18] 0.127 | [19] -0.04 | [14] 0.005 | [15] 0.016 | [16] -0.091 | [20] -0.123

MRPL16 (UniProt Q9NX20)
inactive: [1] -0.054 | [2] -0.045 | [3] 0.028 | [4] -0.017 | [5] 0.024 | [6] 0.075 | [7] 0.054 | [8] -0.069 | [9] 0.074 | [10] 0.007 | [11] -0.076 | [12] -0.078 | [13] 0.069 | [14] -0.038 | [15] -0.048 | [16] -0.019

MMGT1 (UniProt Q8N4V1)
inactive: [17] 0.041 | [1] -0.128 | [2] 0.048 | [4] 0 | [5] 0.079 | [6] -0.038 | [7] 0.015 | [8] -0.05 | [9] -0.025 | [10] 0.013 | [11] -0.044 | [12] -0.015 | [18] -0.055 | [13] -0.035 | [19] 0.046 | [14] -0.023 | [15] 0.032 | [16] -0.023 | [20] 0.028

MROH1 (UniProt Q8NDA8)
inactive: [17] -0.144 | [1] 0.046 | [4] -0.008 | [5] 0.065 | [6] 0.027 | [11] -0.073 | [12] -0.111 | [18] -0.205 | [13] 0.104 | [19] -0.058 | [14] 0.055 | [15] 0.074 | [16] -0.324 | [20] 0.196

MRPL2 (UniProt Q5T653)
inactive: [17] -0.052 | [1] 0.047 | [2] -0.007 | [3] -0.125 | [4] 0.029 | [7] 0.043 | [8] -0.009 | [9] -0.047 | [10] -0.015 | [11] -0.045 | [12] -0.048 | [18] -0.029 | [13] 0.02 | [19] -0.041 | [15] 0.026 | [16] -0.029 | [20] 0.048

MGRN1 isoform 2 (UniProt O60291)
inactive: [17] -0.108 | [2] 0.026 | [3] -0.005 | [4] -0.038 | [5] 0.015 | [6] -0.03 | [8] 0.112 | [10] -0.013 | [11] 0.19 | [12] 0.108 | [18] 0.008 | [13] 0.054 | [19] 0.09 | [14] -0.066 | [15] -0.092 | [16] -0.104 | [20] -0.072

MRAS (UniProt O14807)
inactive: [17] 0.012 | [2] -0.051 | [3] -0.114 | [4] 0.012 | [5] -0.134 | [6] 0.062 | [7] -0.127 | [8] -0.072 | [9] 0.002 | [10] -0.099 | [11] 0.008 | [12] 0.038 | [18] 0.126 | [13] 0.141 | [19] -0.16 | [14] -0.048 | [15] 0.004 | [16] 0.034 | [20] -0.187

MMACHC (UniProt Q9Y4U1)
inactive: [17] -0.058 | [1] -0.266 | [3] -0.052 | [4] -0.11 | [7] 0.089 | [9] -0.06 | [11] 0.005 | [18] -0.157 | [13] -0.083 | [19] -0.104 | [16] -0.067 | [20] 0.088

MIIP (UniProt Q5JXC2)
inactive: [1] -0.078 | [2] -0.258 | [11] -0.054 | [12] -0.082 | [15] 0.044 | [16] 0

MILR1 (UniProt Q7Z6M3)
inactive: [1] 0.126 | [2] -0.015 | [3] 0.162 | [5] 0.054 | [6] -0.122 | [12] -0.015 | [14] -0.116 | [15] 0.031

Taken from the results shown (2 entries):
MRAS (UniProt O14807)
inactive: [17] 0.012 | [2] -0.051 | [3] -0.114 | [4] 0.012 | [5] -0.134 | [6] 0.062 | [7] -0.127 | [8] -0.072 | [9] 0.002 | [10] -0.099 | [11] 0.008 | [12] 0.038 | [18] 0.126 | [13] 0.141 | [19] -0.16 | [14] -0.048 | [15] 0.004 | [16] 0.034 | [20] -0.187

MMACHC (UniProt Q9Y4U1)
inactive: [17] -0.058 | [1] -0.266 | [3] -0.052 | [4] -0.11 | [7] 0.089 | [9] -0.06 | [11] 0.005 | [18] -0.157 | [13] -0.083 | [19] -0.104 | [16] -0.067 | [20] 0.088

Later entries.

MLXIPL (UniProt Q9NP71)
inactive: [17] -0.086 | [1] -0.122 | [2] -0.089 | [12] -0.009 | [18] 0.056 | [19] 0.154 | [15] -0.049 | [20] 0.023

MLYCD (UniProt O95822)
inactive: [17] 0.012 | [1] -0.052 | [2] -0.005 | [4] 0.116 | [5] -0.029 | [6] 0.036 | [7] 0.02 | [8] 0.01 | [9] -0.017 | [10] -0.039 | [11] 0.006 | [12] 0.006 | [18] 0.043 | [13] 0.019 | [19] -0.012 | [14] 0.06 | [15] 0.016 | [16] -0.022 | [20] -0.038

MLKL (UniProt Q8NB16)
inactive: [17] -0.02 | [1] -0.124 | [2] 0.088 | [5] 0.056 | [6] 0.048 | [7] 0.017 | [8] 0.015 | [9] 0.078 | [10] -0.128 | [11] -0.013 | [12] 0.122 | [18] -0.138 | [19] 0.029 | [14] -0.047 | [15] -0.025 | [16] -0.137 | [20] 0.217

MOB1A (UniProt Q9H8S9)
inactive: [3] 0.063 | [5] -0.07 | [6] 0.019 | [14] -0.051
